The results in this text go back to paper PMC3961341.

No constants are given. Whether binding was seen depends on the method and setting. For some assays here: In cells and extracts the contact can be indirect. Some results given as binding are weak or reduced against the parent protein; the word gives no strength. For some assays here: Sequences can lack the tags named with a protein.

Assay [1] concerns the target T1, Flag-tagged RIG-IΔCTD (RIG-I 1-801) (human) (UniProt O95786).
T1 sequence: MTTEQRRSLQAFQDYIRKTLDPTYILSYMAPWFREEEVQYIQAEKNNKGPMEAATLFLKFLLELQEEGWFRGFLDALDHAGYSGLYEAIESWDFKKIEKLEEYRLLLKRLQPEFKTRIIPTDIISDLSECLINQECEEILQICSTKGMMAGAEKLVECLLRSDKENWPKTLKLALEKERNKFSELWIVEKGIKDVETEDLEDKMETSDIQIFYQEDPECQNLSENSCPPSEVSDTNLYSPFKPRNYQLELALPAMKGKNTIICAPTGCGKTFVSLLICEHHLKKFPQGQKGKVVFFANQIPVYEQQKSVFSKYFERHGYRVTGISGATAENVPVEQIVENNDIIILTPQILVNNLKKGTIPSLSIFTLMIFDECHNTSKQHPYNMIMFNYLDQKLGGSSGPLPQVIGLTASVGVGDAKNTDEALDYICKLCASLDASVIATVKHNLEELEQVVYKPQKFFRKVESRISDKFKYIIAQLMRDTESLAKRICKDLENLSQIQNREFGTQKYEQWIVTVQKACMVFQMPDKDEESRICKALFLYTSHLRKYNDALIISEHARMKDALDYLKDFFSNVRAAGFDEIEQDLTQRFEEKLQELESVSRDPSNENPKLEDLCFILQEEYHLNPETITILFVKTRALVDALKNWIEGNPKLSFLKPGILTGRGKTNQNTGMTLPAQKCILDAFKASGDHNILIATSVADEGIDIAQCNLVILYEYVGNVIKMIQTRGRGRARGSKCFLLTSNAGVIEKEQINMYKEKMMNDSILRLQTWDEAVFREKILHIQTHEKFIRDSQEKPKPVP
The assay can be described thus: co-IP.

For assay [2], the target named is T2, mouse IRF-3, endogenous (mouse (endogenous in MEF)), P70671.
T2 chain: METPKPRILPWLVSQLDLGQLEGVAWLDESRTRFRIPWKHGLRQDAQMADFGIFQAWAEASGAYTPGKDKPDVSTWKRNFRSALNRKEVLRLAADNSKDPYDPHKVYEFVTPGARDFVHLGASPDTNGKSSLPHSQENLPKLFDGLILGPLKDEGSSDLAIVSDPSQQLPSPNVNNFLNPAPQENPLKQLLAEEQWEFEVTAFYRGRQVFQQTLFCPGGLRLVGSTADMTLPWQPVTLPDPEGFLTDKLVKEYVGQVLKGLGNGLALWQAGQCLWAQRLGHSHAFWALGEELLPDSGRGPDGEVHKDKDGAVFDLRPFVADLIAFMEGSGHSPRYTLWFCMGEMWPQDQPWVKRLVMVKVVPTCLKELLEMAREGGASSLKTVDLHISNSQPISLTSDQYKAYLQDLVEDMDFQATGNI
The assay can be described thus: native gel or EMSA. The conditions noted are these: remark: other sources report otherwise.

In assay [3] the target is T3, FLAG-RIG-I stably expressed in rig-i null MEFs (RIG-I null/FLAG-RIG-I) (human) (UniProt O95786).
T3 sequence: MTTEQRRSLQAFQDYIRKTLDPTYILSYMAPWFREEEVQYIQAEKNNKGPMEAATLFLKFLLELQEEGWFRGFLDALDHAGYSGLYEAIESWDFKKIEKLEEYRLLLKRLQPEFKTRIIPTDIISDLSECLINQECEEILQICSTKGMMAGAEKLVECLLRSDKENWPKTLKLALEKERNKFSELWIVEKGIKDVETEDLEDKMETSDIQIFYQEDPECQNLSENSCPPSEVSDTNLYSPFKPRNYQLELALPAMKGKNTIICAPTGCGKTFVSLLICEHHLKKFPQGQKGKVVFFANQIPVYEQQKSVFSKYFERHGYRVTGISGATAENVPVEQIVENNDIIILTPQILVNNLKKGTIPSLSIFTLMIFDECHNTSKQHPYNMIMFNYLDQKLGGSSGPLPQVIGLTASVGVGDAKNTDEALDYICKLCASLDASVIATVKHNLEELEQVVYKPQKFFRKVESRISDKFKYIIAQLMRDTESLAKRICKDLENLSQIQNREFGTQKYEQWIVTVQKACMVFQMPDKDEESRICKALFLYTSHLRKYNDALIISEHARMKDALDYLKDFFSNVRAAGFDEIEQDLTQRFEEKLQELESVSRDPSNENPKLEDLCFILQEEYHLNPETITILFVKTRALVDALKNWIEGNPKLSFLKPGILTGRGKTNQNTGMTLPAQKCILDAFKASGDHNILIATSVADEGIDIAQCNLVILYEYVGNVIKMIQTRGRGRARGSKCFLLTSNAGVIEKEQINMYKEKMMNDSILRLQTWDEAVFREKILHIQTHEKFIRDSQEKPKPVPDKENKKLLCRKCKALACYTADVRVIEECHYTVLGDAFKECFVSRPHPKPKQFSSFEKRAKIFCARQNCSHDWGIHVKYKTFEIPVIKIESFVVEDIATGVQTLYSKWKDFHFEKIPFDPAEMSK
Kind of assay: co-IP.

The target of assay [4] is T4, DExD/H-box helicase 36 (DHX36), endogenous human (human (endogenous in HEK293T and HeLa)) (UniProt Q9H2U1).
T4 sequence: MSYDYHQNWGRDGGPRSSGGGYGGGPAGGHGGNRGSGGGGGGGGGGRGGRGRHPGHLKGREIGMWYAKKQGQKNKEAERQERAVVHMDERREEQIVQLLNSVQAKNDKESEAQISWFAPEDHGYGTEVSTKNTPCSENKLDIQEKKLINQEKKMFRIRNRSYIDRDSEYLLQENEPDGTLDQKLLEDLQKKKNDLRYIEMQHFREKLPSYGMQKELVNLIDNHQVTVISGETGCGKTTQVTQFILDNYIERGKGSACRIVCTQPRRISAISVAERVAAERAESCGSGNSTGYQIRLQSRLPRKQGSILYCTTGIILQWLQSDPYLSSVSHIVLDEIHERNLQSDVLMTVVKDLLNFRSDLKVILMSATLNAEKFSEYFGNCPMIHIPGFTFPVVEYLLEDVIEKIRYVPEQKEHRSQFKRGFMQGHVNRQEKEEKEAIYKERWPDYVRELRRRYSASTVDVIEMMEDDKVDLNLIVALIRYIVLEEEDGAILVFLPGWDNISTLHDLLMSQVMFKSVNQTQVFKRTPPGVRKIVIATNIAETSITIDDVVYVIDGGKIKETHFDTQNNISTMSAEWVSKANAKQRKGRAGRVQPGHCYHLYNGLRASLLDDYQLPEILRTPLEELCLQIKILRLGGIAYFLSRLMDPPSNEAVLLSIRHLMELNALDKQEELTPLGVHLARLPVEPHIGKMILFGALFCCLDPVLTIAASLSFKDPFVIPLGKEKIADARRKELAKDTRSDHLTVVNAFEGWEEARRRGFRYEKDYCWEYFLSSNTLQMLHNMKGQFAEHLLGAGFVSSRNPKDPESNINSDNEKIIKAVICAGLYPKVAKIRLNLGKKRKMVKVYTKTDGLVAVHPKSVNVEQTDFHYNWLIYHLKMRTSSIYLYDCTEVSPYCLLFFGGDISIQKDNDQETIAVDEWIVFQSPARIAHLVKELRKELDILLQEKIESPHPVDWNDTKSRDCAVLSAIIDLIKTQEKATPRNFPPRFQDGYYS
The assay can be described thus: co-IP.

In assay [5] the target is GFP-tagged RasGAP SH3-domain-binding protein 1 (G3BP1) (human), Q13283. Kind of assay: co-IP. The conditions noted are these: remark: other sources report otherwise.

Turning to “double-stranded RNA (dsRNA)-dependent protein kinase (PKR), endogenous human (from UniProt P19525-1 1-551)”, the binding result in assay [1] is given as “binds”.

B1: mouse IRF-3, endogenous, P70671 1-419 (protein)
chain: T2 chain
Regarding B1, in assay [2], the binding entry is recorded as “binds”.

B2: mouse DHX36, endogenous (protein, UniProt Q8VHK9 1-1001)
chain: MSYDYHQSWSRDGGPRGSGQGSSGGGGGGSRGSGGGGGGRGGRGRHPAHLKGREIGLWYAKKQTQKNKEAERQERAVVHMDERREEQIVQLLNSVQAKTDKDSEAQISWFAPEDHGYGTEVSSEKKINSEKKLDNQEKKLLNQEKKTFRITDKSYIDRDSEYLLQENEPNLSLDQHLLEDLQRKKTDPRYIEMQRFRKKLPSYGMQKELVNLINNHQVTVISGETGCGKTTQVTQFILDNYIERGKGSACRIVCTQPRRISAISVAERVATERAESCGNGNSTGYQIRLQSRLPRKQGSILYCTTGIILQWLQSDSRLSSVSHIVLDEIHERNLQSDVLMTVIKDLLHFRSDLKVILMSATLNAEKFSEYFGNCPMIHIPGFTFPVVEYLLEDIIEKIRYVPDQKEHRSQFKRGFMQGHVNRQEKEEKEAIYKERWPAYIKELRTRYSASTVDVLQMMDDDKVDLNLIAALIRYIVLEEEDGAILVFLPGWDNISTLHDLLMSQVMFKSDKFLIIPLHSLMPTVNQTQVFKKTPPGVRKIVIATNIAETSITIDDVVYVIDGGKIKETHFDTQNNISTMSAEWVSKANAKQRKGRAGRVQPGHCYHLYNGLRASLLDDYQLPEILRTPLEELCLQIKILRLGGIAYFLSRLMDPPSNEAVVLSIKHLMELSALDKQEELTPLGVHLARLPVEPHIGKMILFGALFCCLDPVLTIAASLSFKDPFVIPLGKEKIADARRKELAKETRSDHLTVVNAFEGWEEAKRRGFRYEKDYCWEYFLSSNTLQMLHNMKGQFAEHLLGAGFVSSRSPKDPKANINSDNEKIIKAVICAGLYPKVAKIRLNLGKKRKMVKVHTKSDGLVSIHPKSVNVEQTDFHYNWLIYHLKMRTSSIYLYDCTEVSPYCLLFFGGDISIQKDKDQEIIAVDEWIVFQSPERIAHLVKGLRKELDSLLQEKIESPHPVDWDDTKSRDCAVLSAILDLIKTQEKATPRNLPPRSQDGYYS
On to B2, for which, in assay [3], the binding result is given as “binds”.

B3: RIG-I, endogenous human (protein, UniProt O95786-1 1-925)
chain: T3 sequence
Turning to B3, the binding result in assay [4] is given as “binds”.

B4: RIG-I, endogenous human, O95786-1 1-925 (protein)
chain: T3 sequence
For the molecule B4, in assay [5], the binding entry is on record as “binds”.
